Data taken from patent US7879861B2, “Combi-molecules having EGFR and DNA targeting properties” (priority 2005, dated 2011).
Where “and” joins values, the source holds several entries; their conditions need not be identical. Equal entries are not always repeated. Where two headings read alike, the source gives them in different places. For at least one compound, name, drawing or mass did not settle the structure. Some entries share one result that the patent states for a list of compounds.

Legend:
MDA-MB-453 cells = assay: Reversibility of antiproliferative effect, SRB assay; type: cell-based, human; conditions: MDA-MB-453, SRB
Description: (§1) In vitro growth inhibition assay: To study the effect of the compounds on growth factor stimulated-proliferation, cells were grown to 70% of confluence in 48-well plates. […] Cell growth was measured using the sulforhodamine B (SRB) assay (24). Briefly, following drug treatment, cells were fixed using 50 μl of cold trichloroacetic acid (50%) for 60 min at 4° C., washed five times with tap water, and stained for 30 min at room temperature with SRB (0.4%) and dissolved in acetic acid (0.5%). The plates were rinsed five times with 1% acetic acid and allowed to air dry. The resulting colored residue was dissolved in 200 μl of Tris base (10 mM), and the optical density read for each well at 450 nm using a Bio-Rad microplate reader (model 2550). […] Cell growth was measured using SRB assay as described previously.

MDA-MB-468 cells = assay: as above; type: cell-based, human; conditions: read-out: IC50, growth inhibition, 2 h exposure followed by 120 h recovery; MDA-MB-468, SRB
Description: as §1

DNA of MDA-MB-468 cells = conditions: known cytotoxic agents; cited from earlier work

Structure (SMILES)	IC50 (MDA-MB-453 cells; read-out: IC50, growth inhibition, 120 h continuous exposure)	IC50 (MDA-MB-453 cells; read-out: IC50, growth inhibition, 2 h exposure followed by 120 h recovery)	IC50 (MDA-MB-468 cells)	concentration inducing the same levels of DNA damage (DNA of MDA-MB-468 cells)
Nc1ccc2ncnc(Nc3cccc(Br)c3)c2c1 [ZR01, reference compound]	16 µM	212 µM	175 µM and > 100 µM	–
Cn1nnc2c(C(N)=O)ncn2c1=O [temozolomide]	–	–	–	> 50 µM
